# Source: PubChem BioAssay (EPA / NIEHS)
# By UniProt entry, the sequences of proteins in these tests, tags left out. Where a name states a change or a piece, a line headed by the entry shows the natural chain unless it says otherwise.
# UniProt P04386, whole entry, looked up: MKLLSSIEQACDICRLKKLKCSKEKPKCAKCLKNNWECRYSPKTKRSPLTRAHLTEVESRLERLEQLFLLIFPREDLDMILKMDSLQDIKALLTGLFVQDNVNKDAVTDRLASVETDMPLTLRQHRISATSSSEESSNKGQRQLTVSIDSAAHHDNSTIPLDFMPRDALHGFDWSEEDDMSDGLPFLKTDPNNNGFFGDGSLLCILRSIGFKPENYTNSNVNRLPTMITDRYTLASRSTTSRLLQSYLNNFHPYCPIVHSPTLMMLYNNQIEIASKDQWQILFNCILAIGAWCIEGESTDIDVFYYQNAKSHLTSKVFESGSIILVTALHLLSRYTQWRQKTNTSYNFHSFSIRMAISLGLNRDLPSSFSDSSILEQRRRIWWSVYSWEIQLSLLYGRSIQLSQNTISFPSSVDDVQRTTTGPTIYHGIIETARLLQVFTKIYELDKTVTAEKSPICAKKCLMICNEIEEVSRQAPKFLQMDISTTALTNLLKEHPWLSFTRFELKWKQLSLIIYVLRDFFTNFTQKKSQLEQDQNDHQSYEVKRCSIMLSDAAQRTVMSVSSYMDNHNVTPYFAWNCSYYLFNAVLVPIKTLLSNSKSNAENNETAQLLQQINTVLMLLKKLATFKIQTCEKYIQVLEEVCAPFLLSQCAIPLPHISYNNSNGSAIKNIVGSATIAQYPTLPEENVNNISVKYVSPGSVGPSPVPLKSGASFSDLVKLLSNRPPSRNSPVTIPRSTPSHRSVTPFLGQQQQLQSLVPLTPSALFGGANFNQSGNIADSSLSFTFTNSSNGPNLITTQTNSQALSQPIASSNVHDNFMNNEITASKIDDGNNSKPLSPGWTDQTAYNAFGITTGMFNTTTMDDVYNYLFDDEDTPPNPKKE
# UniProt P10827: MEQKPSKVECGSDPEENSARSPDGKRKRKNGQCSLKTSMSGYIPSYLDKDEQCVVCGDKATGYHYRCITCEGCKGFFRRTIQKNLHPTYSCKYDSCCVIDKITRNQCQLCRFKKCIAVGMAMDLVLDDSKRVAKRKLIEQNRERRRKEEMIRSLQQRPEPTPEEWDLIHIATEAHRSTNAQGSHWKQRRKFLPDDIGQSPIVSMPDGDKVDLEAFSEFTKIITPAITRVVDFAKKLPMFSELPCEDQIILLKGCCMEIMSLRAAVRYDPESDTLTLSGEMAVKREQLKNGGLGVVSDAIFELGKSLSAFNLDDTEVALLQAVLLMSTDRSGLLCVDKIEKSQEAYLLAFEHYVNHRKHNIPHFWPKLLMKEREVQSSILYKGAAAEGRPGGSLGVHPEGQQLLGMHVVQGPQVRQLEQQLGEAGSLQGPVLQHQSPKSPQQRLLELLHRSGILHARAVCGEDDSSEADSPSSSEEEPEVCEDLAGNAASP
# UniProt P10828: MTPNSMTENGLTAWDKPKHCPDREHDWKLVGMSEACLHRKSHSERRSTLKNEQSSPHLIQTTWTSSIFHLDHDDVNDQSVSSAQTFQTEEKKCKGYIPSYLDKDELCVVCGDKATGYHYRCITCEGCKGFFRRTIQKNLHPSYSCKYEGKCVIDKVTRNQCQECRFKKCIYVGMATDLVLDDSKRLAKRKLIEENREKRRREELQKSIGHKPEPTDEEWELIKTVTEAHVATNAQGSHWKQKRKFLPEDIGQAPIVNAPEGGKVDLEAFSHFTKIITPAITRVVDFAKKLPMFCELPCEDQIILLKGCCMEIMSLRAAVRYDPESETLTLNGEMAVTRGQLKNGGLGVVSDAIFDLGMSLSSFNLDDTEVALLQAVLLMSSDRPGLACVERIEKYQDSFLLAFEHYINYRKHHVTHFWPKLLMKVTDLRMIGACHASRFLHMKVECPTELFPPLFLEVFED
# UniProt Q05209: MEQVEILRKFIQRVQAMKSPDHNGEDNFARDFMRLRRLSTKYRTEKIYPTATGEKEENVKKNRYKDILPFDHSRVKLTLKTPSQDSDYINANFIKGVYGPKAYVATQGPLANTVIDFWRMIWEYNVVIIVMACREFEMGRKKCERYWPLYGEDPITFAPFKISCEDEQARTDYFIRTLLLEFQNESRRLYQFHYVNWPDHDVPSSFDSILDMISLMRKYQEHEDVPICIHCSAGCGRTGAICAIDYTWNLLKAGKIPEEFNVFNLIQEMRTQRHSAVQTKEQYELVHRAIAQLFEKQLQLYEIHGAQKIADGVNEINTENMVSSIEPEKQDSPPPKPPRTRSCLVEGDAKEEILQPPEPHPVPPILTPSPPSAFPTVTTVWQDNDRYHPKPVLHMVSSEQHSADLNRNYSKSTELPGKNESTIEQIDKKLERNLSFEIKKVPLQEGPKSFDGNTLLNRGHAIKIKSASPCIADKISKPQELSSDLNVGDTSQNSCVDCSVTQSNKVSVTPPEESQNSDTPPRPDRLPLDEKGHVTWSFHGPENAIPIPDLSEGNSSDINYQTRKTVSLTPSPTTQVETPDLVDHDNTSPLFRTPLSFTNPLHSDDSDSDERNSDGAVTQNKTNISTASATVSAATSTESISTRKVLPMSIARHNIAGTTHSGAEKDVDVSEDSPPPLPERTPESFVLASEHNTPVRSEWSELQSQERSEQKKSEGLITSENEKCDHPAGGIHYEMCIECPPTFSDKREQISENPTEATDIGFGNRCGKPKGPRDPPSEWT
# UniProt P30989, whole entry, looked up: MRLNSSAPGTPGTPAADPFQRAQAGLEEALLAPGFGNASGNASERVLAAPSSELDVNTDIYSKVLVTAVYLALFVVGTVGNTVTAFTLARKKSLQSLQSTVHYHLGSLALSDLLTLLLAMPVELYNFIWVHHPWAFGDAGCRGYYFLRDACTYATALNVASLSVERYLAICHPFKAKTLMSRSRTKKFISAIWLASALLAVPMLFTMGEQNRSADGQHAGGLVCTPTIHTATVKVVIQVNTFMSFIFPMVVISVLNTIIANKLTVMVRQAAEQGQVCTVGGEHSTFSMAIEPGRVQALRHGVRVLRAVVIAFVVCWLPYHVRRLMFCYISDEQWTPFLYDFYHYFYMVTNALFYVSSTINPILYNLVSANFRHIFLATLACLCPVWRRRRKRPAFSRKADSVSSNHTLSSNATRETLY
# UniProt P51589: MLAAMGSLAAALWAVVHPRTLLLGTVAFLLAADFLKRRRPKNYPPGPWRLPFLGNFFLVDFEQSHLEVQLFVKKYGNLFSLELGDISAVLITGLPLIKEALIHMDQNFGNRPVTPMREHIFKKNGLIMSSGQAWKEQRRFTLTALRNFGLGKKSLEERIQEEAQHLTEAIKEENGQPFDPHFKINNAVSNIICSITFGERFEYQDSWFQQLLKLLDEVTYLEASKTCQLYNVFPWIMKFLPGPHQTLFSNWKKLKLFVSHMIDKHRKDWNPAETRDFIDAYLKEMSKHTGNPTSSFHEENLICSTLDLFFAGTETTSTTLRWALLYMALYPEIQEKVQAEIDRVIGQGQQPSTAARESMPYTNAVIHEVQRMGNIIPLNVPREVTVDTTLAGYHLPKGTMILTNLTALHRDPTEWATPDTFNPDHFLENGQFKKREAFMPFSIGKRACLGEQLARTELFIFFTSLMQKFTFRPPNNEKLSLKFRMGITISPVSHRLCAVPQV
# UniProt Q9NTG7: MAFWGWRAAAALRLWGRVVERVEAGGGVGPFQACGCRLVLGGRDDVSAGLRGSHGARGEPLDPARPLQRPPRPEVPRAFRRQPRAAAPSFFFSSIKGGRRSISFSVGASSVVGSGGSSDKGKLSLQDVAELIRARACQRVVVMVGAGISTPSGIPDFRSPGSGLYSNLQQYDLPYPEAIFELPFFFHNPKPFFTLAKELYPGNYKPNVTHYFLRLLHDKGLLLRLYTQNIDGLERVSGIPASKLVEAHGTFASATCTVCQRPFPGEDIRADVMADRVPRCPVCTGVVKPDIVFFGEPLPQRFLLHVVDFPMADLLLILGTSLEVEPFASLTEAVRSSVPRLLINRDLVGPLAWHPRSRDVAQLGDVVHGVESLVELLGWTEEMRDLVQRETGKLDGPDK
# Inconclusive means that the source gave no clear call. Such entries were picked first, then a sample of the others. For some of these results: Potencies of inconclusive entries are doubtful fits and often do not repeat. Activity calls are given as the source filed them. How the source made its calls: active means hit-call score of the fitted dose curve at least 0.9, where 1 is the maximum; inconclusive means response in the unintended direction; inactive means score below 0.9.
# Columns and labels:
# [1] = test system: turtle Androgen Receptor (AR), gene 101947425; assay: ATG_trAR_XSP1: Attagene TRANS-FACTORIAL Multi-Species (XSP1) HepG2 Assay for turtle Androgen Receptor (AR) (AID 2283786)
# How it was run: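 HepG2 cells transiently transfected with a turtle AR–GAL4 chimera and GAL4-UAS reporter, co-treated with 3 nM 6-alpha-fluorotestosterone for partial stimulation. Reporter mRNA is quantified at 24 h by RT-PCR and capillary electrophoresis, gain-of-signal versus DMSO.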
# [2] = target: GAL4 Transcription Factor (Internal Marker), GAL4 (gene 855828) (UniProt P04386); assay: ATG_GAL4_XSP1: Attagene TRANS-FACTORIAL Multi-Species (XSP1) HepG2 Assay for GAL4 Transcription Factor (Internal Marker) (AID 2283789)
# How it was run: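 HepG2 cells transiently transfected with multiplexed GAL4-UAS reporter units were exposed for 24 h with 3 nM 6-alpha-fluorotestosterone present. Reporter mRNA was quantified by RT-PCR, FAM labelling, HpaI digestion and capillary electrophoresis; background-control readout, gain-of-signal versus DMSO.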
# [3] = test system: zebrafish Peroxisome Proliferator-activated Receptor gamma (PPARg), gene 557037; assay: ATG_zfPPARg_XSP1: Attagene TRANS-FACTORIAL Multi-Species (XSP1) HepG2 Assay for zebrafish Peroxisome Proliferator-activated Receptor gamma (PPARg) (AID 2283801)
# How it was run: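 HepG2 cells transiently transfected with GAL4-UAS reporter units including a zebrafish PPARg–GAL4 chimera, dosed 24 h with 3 nM 6-alpha-fluorotestosterone present. Reporter mRNA quantified by RT-PCR, FAM labelling, HpaI digestion and capillary electrophoresis; induction versus DMSO.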
# [4] = target: human Thyroid hormone Receptor alpha (TRa), THRA (gene 7067) (UniProt P10827); assay: ATG_hTRa_XSP1: Attagene TRANS-FACTORIAL Multi-Species (XSP1) HepG2 Assay for human Thyroid hormone Receptor alpha (TRa) (AID 2283805)
# How it was run: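 HepG2 cells transiently transfected with GAL4-UAS reporter units expressing chimeric NR-Gal4 proteins, dosed 24 hours with 3 nM 6-alpha-fluorotestosterone present. Reporter mRNA measured by RT-PCR and capillary electrophoresis; gain of signal fitted versus DMSO.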
# [5] = target: human Thyroid hormone Receptor beta (TRb), THRB (gene 7068) (UniProt P10828); assay: ATG_hTRb_XSP1: Attagene TRANS-FACTORIAL Multi-Species (XSP1) HepG2 Assay for human Thyroid hormone Receptor beta (TRb) (AID 2283808)
# How it was run: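 HepG2 cells transiently transfected with reporter units driving GAL4-UAS reporters for chimeric NR-Gal4 proteins; 24 h chemical exposure with 3 nM 6-alpha-fluorotestosterone present. Reporter mRNA quantified by RT-PCR and capillary electrophoresis, gain of signal versus DMSO.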
# [6] = ATG_XTT_Cytotoxicity_XSP1: Cytotoxicity Assessment in the Attagene TRANS-FACTORIAL Multi-Species (XSP1) HepG2 Assay (AID 2283810)
# How it was run: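 XTT viability readout taken at 24 hours post-dosing in HepG2 liver cells co-treated with 3 nM 6-alpha-fluorotestosterone. Signal loss relative to DMSO controls reflects cytotoxicity.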
# [7] = target: Nuclear receptor subfamily 1 group I member 2 (Mus musculus) (UniProt O54915); assay: ATG_mPXR_XSP2: Attagene TRANS-FACTORIAL Multi-Species (XSP1) HepG2 Assay for mouse Pregnane X Receptor (PXR) (AID 2283831)
# How it was run: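 Reporter transcripts were quantified by RT-PCR, FAM primer extension, HpaI digestion and capillary electrophoresis after 24 h of chemical exposure in transiently transfected HepG2 cells carrying chimeric receptor-GAL4 constructs; DMSO served as baseline.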
# [8] = test system: zebrafish Peroxisome Proliferator-activated Receptor gamma (PPARg), gene 557037; assay: ATG_zfPPARg_XSP2: Attagene TRANS-FACTORIAL Multi-Species (XSP2) HepG2 Assay for zebrafish Peroxisome Proliferator-activated Receptor gamma (PPARg) (AID 2283833);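 further: actives increase reporter signal over DMSO so AC50 reflects activation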
# How it was run: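 Multi-species TRANS format in HepG2, 24 h dosing; medium also contained 3 nM 6-alpha-fluorotestosterone and 1.5 nM norgestrel to stimulate androgen receptor. Zebrafish PPARg-GAL4 induced reporter mRNA was measured by RT-PCR/capillary electrophoresis.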
# [9] = target: Collagenase 3 (Homo sapiens) (UniProt P45452); assay: NVS_ENZ_hMMP13: NovaScreen (NVS) Enzymatic Assay for human Matrix Metalloproteinase-13 (MMP13) (AID 2283182)
# How it was run: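 Recombinant MMP13 cleaving fluorescent substrate, cell-free, measured 1 h after dosing. Primary duplicate screen at 25 uM; actives tested in concentration-response up to 50 uM; loss of signal relative to DMSO.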
# [10] = target: cAMP-dependent protein kinase catalytic subunit alpha (Homo sapiens) (UniProt P17612); assay: NVS_ENZ_hPKA: NovaScreen (NVS) Enzymatic Assay for human Protein Kinase A (PKA) (AID 2283192)
# How it was run: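 Recombinant human PKA with specific fluorescent substrate, product separated by electrophoretic mobility shift, read 1 h after dosing. Primary screen at 25 uM in duplicate; actives then run in concentration-response up to 50 uM, activity relative to DMSO.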
# [11] = target: Tyrosine-protein phosphatase non-receptor type 12 (Homo sapiens) (UniProt Q05209); assay: NVS_ENZ_hPTPN12: NovaScreen (NVS) Enzymatic Assay for human Protein Tyrosine Phosphatase Non-receptor Type 12 (PTPN12) (AID 2283204)
# How it was run: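 Single-concentration duplicates (25 uM) preceded singleton concentration-response up to 50 uM for chemicals passing threshold. Cell-free recombinant PTPN12 activity was read 1.33 h after dosing via fluorescence after mobility-shift separation; loss of signal versus DMSO.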
# [12] = target: human Neurotensin Receptor (NTS), NTSR1 (gene 4923) (UniProt P30989); assay: NVS_GPCR_hNTS: NovaScreen (NVS) G Protein-Coupled Receptor Assay for human Neurotensin Receptor (NTS) (AID 2283279)
# How it was run: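 Radioligand displacement on human NTSR1 protein from CHO cells, cell-free, 1 h, filter-based scintillation counting. Primary screen at 25 uM in duplicate; hits rerun in concentration-response up to 50 uM.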
# [13] = target: rat Glutamate, MK-801 Agonist Site (GluNMDA_MK801), Grin1 (gene 24408) (UniProt P35439); assay: NVS_LGIC_rGluNMDA_MK801_Agonist: NovaScreen (NVS) Ligand-Gated Ion Channel Assay for rat Glutamate, MK-801 Agonist Site (GluNMDA_MK801) (AID 2283340)
# How it was run: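 Radioligand binding at MK-801 site in rat forebrain membranes, 1.5 h incubation, filter-based scintillation counting. Initially 25 uM in duplicate; actives then run in concentration-response up to 50 uM, fitted for gain of signal versus DMSO.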
# [14] = read-out: glucuronosyltransferase (UGT1A1), UGT1A1 (gene 54658); assay: CLD_UGT1A1_6hr: CellzDirect (CLD) Gene Expression Assay for glucuronosyltransferase (UGT1A1) at 6 hours (AID 2283672)
# How it was run: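 Primary human hepatocytes from two donor preparations, dosed with fresh solutions in 0.2% DMSO, harvested at 6 h. UGT1A1 mRNA measured by qNPA chemiluminescence; induction fitted upward versus DMSO.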
# [15] = read-out: ABC Transporter (ABCB11), ABCB11 (gene 8647); assay: CLD_ABCB11_6hr: CellzDirect (CLD) Gene Expression Assay for ABC Transporter (ABCB11) at 6 hours (AID 2283675);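 further: hits raise ABCB11 mRNA level so AC50 marks induction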
# How it was run: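 Human primary hepatocytes (two donor preparations) given fresh chemical daily at multiple concentrations, vehicle 0.2% DMSO. ABCB11 mRNA induction measured 6 h after dosing by qNPA chemiluminescence versus DMSO; cytotoxicity annotated from morphology.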
# [16] = read-out: xenobiotic metabolism (CYP1A2), CYP1A2 (gene 1544); assay: CLD_CYP1A2_48hr: CellzDirect (CLD) Gene Expression Assay for xenobiotic metabolism (CYP1A2) at 48 hours (AID 2283703)
# How it was run: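 Primary human hepatocytes from two donor preparations were dosed daily for two days at multiple concentrations in 0.2% DMSO vehicle. CYP1A2 mRNA was measured at 48 hours by chemiluminescent quantitative nuclease protection assay, with gain of signal fitted versus DMSO and cytotoxicity annotated from morphology.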
# [17] = target: human CYP2J2, CYP2J2 (gene 1573) (UniProt P51589); assay: NVS_ADME_hCYP2J2: NovaScreen (NVS) CYP450-related Enzyme Activity (ADME) Assay for human CYP2J2 (AID 2283106)
# How it was run: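 Cell-free assay of recombinant CYP2J2 with a fluorogenic substrate, read 1 h after dosing; loss of signal versus acetonitrile. Primary screen at 10 uM in duplicate, then concentration-response up to 20 uM for chemicals passing threshold (e.g., 30% inhibition).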
# [18] = target: human Sirtuin 3 (SIRT3), SIRT3 (gene 23410) (UniProt Q9NTG7); assay: NVS_ENZ_hSIRT3: NovaScreen (NVS) Enzymatic Assay for human Sirtuin 3 (SIRT3) (AID 2283222)
# How it was run: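 Cell-free enzyme assay with recombinant protein and fluorescent substrate, product separated by electrophoretic mobility shift; read 1 hour after dosing. Screened in duplicate at 25 uM, then singleton concentration-response up to 50 uM; loss of signal versus DMSO.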
# [19] = ATG_M_06_XSP2: Attagene TRANS-FACTORIAL Multi-Species (XSP2) HepG2 Assay for M06 Transcription Factor (Internal Marker) (AID 2283811);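 on outcome: internal background marker reporter mRNA measured by RT-PCR and capillary electrophoresis; hits are increases in signal above the DMSO baseline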
# How it was run: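 HepG2 cells transiently transfected with GAL4-UAS multi-reporter constructs, dosed 24 h with 3 nM 6-alpha-fluorotestosterone plus 1.5 nM norgestrel present to stimulate androgen receptor. Reporter mRNA quantified by RT-PCR, 6-FAM labelling, HpaI digestion and capillary electrophoresis; gain-of-signal fitted versus DMSO baseline.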
# [20] = target: Beta-2 adrenergic receptor (Homo sapiens) (UniProt P07550); assay: NVS_GPCR_hAdrb2: NovaScreen (NVS) G Protein-Coupled Receptor Assay for human Adrenergic, Beta 2 Receptor (Adrb2) (AID 2283261)
# How it was run: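 Filter-based radioligand binding using receptor prepared from CHO cells, 1 h incubation, scintillation counting. Primary screen in duplicate at 25 uM, actives retested in concentration series; loss of binding relative to DMSO.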
structure (smiles),measurement,setting,value
CC(C)(C)CC(C)(C)c1ccc(O)cc1,AC50,[1],inconclusive: 10 µM
same,AC50,[2],inconclusive: 4.97 µM
same,outcome,[3],inactive
same,AC50,[4],inconclusive: 10 µM
same,AC50,[5],inconclusive: 10 µM
same,outcome,[6],inactive
same,outcome,[7],inactive
same,AC50,[8],inconclusive: 10 µM
S=C1NCCN1,outcome,[9],inactive
same,outcome,[10],inactive
same,AC50,[11],inconclusive: 25 µM
same,AC50,[12],inconclusive: 25 µM
same,AC50,[13],inconclusive: 25 µM
same,AC50,[14],inconclusive: 20 µM
same,outcome,[15],inactive
same,AC50,[16],inconclusive: 20 µM
FC(F)C(F)(F)OCC(Cn1cncn1)c1ccc(Cl)cc1Cl (stereo not given),AC50,[17],inconclusive: 0.563 µM
same,AC50,[18],active: 25 µM
CCNC(=O)NC(=O)C(C#N)=NOC,AC50,[20],inconclusive: 25 µM
CC(C)Nc1nc(Cl)nc(NC(C)C)n1,AC50,[15],inconclusive: 20 µM
CCOP(=S)(OCC)Oc1ccc2c(C)c(Cl)c(=O)oc2c1,outcome,[14],inactive
same,AC50,[1],inconclusive: 27.3 µM
same,AC50,[2],inconclusive: 100 µM
same,AC50,[3],inconclusive: 100 µM
same,AC50,[4],inconclusive: 100 µM
same,AC50,[5],inconclusive: 100 µM
same,AC50,[6],inconclusive: 100 µM
CCOC(=O)[C@]1(c2ccccc2)Oc2ccccc2[C@@H]1N,AC50,[20],active: 16.8 µM
same,outcome,[12],inactive
CCOC(=O)CC(SP(=O)(OC)OC)C(=O)OCC (stereo not given),AC50,[17],inconclusive: 2.62 µM
Nc1nc(N)nc(NC2CC2)n1,AC50,[16],inconclusive: 20 µM
CCC(=O)Nc1ccc(Cl)c(Cl)c1,outcome,[19],inactive
Cc1cc(C)cc(C)c1,AC50,[13],inconclusive: 46.6 µM
Oc1ccccc1Cl,AC50,[18],inconclusive: 25 µM
O=C(O)C(F)(F)C(F)(F)C(F)(F)C(F)(F)C(F)(F)C(F)(F)C(F)(F)F,outcome,[9],inactive
same,outcome,[10],inactive
same,outcome,[11],inactive
same,AC50,[7],inconclusive: 100 µM

# 2 neighbouring entries already listed:
structure (smiles),measurement,setting,value
CCOP(=S)(OCC)Oc1ccc2c(C)c(Cl)c(=O)oc2c1,AC50,[3],inconclusive: 100 µM
same,AC50,[4],inconclusive: 100 µM
